US11648287B2, “Composition for the treatment of intracellular bacterial infection” (priority 2017, dated 2023)

System: RAW 264.7 macrophage cell line
Experiment: Fluorescence microscopy of intracellular localization of vancomycin and TPCS2a
Format: cell-based, mouse
Settings: 1 μg/ml TPCS2a and 50 μg/mL BODIPY FL-Vancomycin for 18 h

CN[C@H](CC(C)C)C(=O)N[C@H]1C(=O)N[C@@H](CC(N)=O)C(=O)N[C@H]2C(=O)N[C@H]3C(=O)N[C@H](C(=O)N[C@H](C(=O)O)c4cc(O)cc(O)c4-c4cc3ccc4O)[C@H](O)c3ccc(c(Cl)c3)Oc3cc2cc(c3O[C@@H]2O[C@H](CO)[C@@H](O)[C@H](O)[C@H]2O[C@H]2C[C@](C)(N)[C@H](O)[C@H](C)O2)Oc2ccc(cc2Cl)[C@H]1O [vancomycin]
intracellular localization (after illumination for 120 s): released from the endocytic vesicles
intracellular localization (before illumination): localized in small spots inside the cells, corresponding to endocytic vesicles
